The values below come from PubChem BioAssay AID326 (DTP/NCI, 2004).

This experiment has as its system CD2F1 mice, P388/DHAQ leukemia ip, median survival T/C. Kind of experiment: NCI In Vivo Anticancer Drug Screen. Data for tumor model P388 Leukemia resistant to Dihydroxy Anthracenedione; NSC 299195 (intraperitoneal) in CD2F1 (CDF1) mice. As to conditions: T/C endpoint: median survival time, schedule: Q04DX002 (ip), vehicle: saline, higher T/C = longer survival. How it is done:
The antitumor activity of compounds was measured in mice bearing transplantable tumors. Survival or tumor size were measured and the results are expressed as the measurement made in the treated group (T) divided by the measurement made in the vehicle treated control group (C). The tumor model used in this assay is P388 Leukemia resistant to Dihydroxy Anthracenedione; NSC 299195 (intraperitoneal) in CD2F1 (CDF1) mice

Molecules are shown by their SMILES. The list shows only some results of the screen, not a fair sample: it gathers some chemical classes. Other doses and runs of a compound may be missing. T/C gives the treated animals as a percentage of the vehicle group. Where survival is the endpoint, the PubChem record calls one and a half times the control and up active, and a quarter to a half above the control has no call in these data; cut-offs in other NCI protocols can differ. Schedules are NCI's codes, read here as Q, the interval in days (D) or hours (H), X, the number of doses.

With `CN(CCCl)CCCl`, the T/C is 146 % of control (dose: 0.39 mg/kg/injection), 147 % of control (dose: 0.65 mg/kg/injection), 156 % of control (dose: 1.08 mg/kg/injection) and 190 % of control (dose: 3.0 mg/kg/injection).
